Reference: PubChem BioAssay AID1159584 (Peter MacCallum Cancer Centre, 2016)
Screen: 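Knock-downs that harm CDH1-null cells more than parental MCF10A cells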 (primary screen). Cell system: human MCF10A breast epithelial cells, parental and CDH1-null. Reagents: siRNA against human genes. Read-out: 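ATP luminescence (CellTiter-Glo) viability per line relative to mean mock wells over all plates, and the ratio of CDH1-null to parental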. Scale: CDH1-null / parental viability ratio: higher = CDH1-null cells survive relatively better than parental.
The deposit covers about 18,000 reagents; this is a part drawn at random. Further read-outs or replicates are left out here. Reagent sequences are not shown. Not stated in the record: the amount of reagent, the time to read-out.

Gene,CDH1-null / parental viability ratio
POLR1B,0.9
RAB6D,1.19
NPEPPS,1
HMGA2,0.9
BORCS6,1.76
PRKAB1,0.78
NYX,0.97
ZNF222,0.96
PLAGL1,0.92
UACA,1.12
CLDN15,1.34
KRTAP13-1,1.05
ACAP2,1.05
MIMS2,1.16
KIRREL1,0.84
ZFY,1.95
SLC23A2,0.96
KIF21B,1.09
MSX2,1.01
GJB5,0.96
FANCL,0.97
GPR155,0.89
MAGEA11,0.88
OPTC,0.82
PPP1R12A,1.39
GXYLT2,1.13
RPS5,1.37
SATB1,0.99
VAPB,0.75
TMX2,0.93
PRAMEF4,1.01
BCKDHA,1.47
ACTA1,0.85
AP1G1,1.22
ARPC1A,1.21
GTF2E2,1.15
GJB7,0.84
PSAPL1,1
NCK1,0.71
PXN,0.82
CRTC2,0.93
HES6,1.42
IRAK3,0.97
PCDHB2,1.07
GOLGA2,0.97
SCEL,0.93
P4HA2,1.12
FCHO1,0.78
CTIF,1.24
NFIA,0.99
DHFR2,1.02
ALDH1L1,1.78
AOC1,1.12
OR2B3,1
SLC6A12,0.88
KHDC3L,0.87
MPZL3,0.63
GLUD2,0.94
RDH5,0.9
POLR2D,1.19
PSMA8,1.27
TTC9B,0.85
PLOD3,1.02
ZNF254,0.78
KCNJ5,1.26
BOLA2B,1.26
ZDHHC17,1.12
CAPZA2,1.06

Reformatted: entries from further up
MIMS2
- CDH1-null / parental viability ratio: 1.16

KIRREL1
- CDH1-null / parental viability ratio: 0.84

ZFY
- CDH1-null / parental viability ratio: 1.95

SLC23A2
- CDH1-null / parental viability ratio: 0.96

KIF21B
- CDH1-null / parental viability ratio: 1.09

MSX2
- CDH1-null / parental viability ratio: 1.01

GJB5
- CDH1-null / parental viability ratio: 0.96

FANCL
- CDH1-null / parental viability ratio: 0.97

GPR155
- CDH1-null / parental viability ratio: 0.89

MAGEA11
- CDH1-null / parental viability ratio: 0.88

OPTC
- CDH1-null / parental viability ratio: 0.82
